Marks after values point to notes of the source that are not given here.
How the values were obtained:
[1] = tested on: Arachidonic Acid-Induced Inflammation of the Mouse Ear; assay: Arachidonic acid-induced mouse ear inflammation; type: in vivo, Balb/c mice; details: Table 7; 100 mg/kg, p.o.
Excerpt: (§1) In the following Examples where mice were used, they were male Balb/c mice (20-28 g), and where rats were used, they were male Lewis rats (180-210 g). All mice and rats were obtained from Charles River Breeding Laboratories, Kingston, N.Y. Within a single experiment, mice and rats were sex and age matched.
(§2) The compounds of Formula (IA) were used either as the free base or in the appropriate salt form. Levamisole was used as the hydrochloride salt. The compounds were homogenized in 0.5% tragacanth. Compounds were administered by gavage at the indicated dose in a final volume of 10 ml/kg. Nordihydroguaiaretic acid (NDGA) was solubilized in dimethylacetamide and diluted with olive oil for subcutaneous administration.
Arachidonic acid in acetone (2 mg/20 ul) was applied to the inner surface of the left ear. The thickness of both ears was then measured with a dial micrometer one hour after treatment, and the data were expressed as the change in thickness (10⁻³ cm) between treated and untreated ears.
Test compounds were given orally in 0.5% tragacanth at the times indicated in the text prior to the topical application of arachidonic acid.
Parenteral administration of compound was accomplished by subcutaneous injection of solution as indicated.

[2] = tested on: Polymorphonuclear Leukocytes; assay: Mouse Carrageenan Peritonitis (PMN infiltration); type: in vivo, Balb/c mice; details: Table 3; 100 mg/kg, p.o.
Excerpt: as §1, §2
Mice were pretreated with either the test compound or vehicle one hour before the intraperitoneal injection of a 1.0% carrageenan suspension in saline (0.2 ml/ mouse). Mice were sacrificed by cervical dislocation two hours after injection, and 3.0 ml of phosphate buffered saline, without Ca⁺⁺ or Mg⁺⁺, was injected into the peritoneum. Following massage, a 2.0 ml aliquot of the lavage fluid was removed, and the total cell count determined on a Coulter counter and differential cell count determined by microscopic examination of Giesma-stained slides.

Q: Which “Increase in Ear Thickness at 1 Hour (x 10⁻³ cm)” value [1] does the source give for COc1ccc2cc([C@H](C)C(=O)O)ccc2c1 [Naproxen] here?
A: 26.4 ± 2.6 x 10⁻³ cm

Q: What about the “% Change” value [2] of the same compound?
A: -11^b %

Q: What about the “PMN x 10⁻⁵/ml (Mean ± S.D.)” value [2] of the same compound?
A: 10.28 ± 2.49 x 10⁻⁵/ml

Source: patent EP0231622B1, “Inhibition of the 5-lipoxygenase pathway” (priority 1985, dated 1987)
